Results deposited as PubChem BioAssay AID1259327 (Drosophila RNAi Screening Center, 2017)
Assay: 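Data from controls in screens of zinc and manganese toxicity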. Cells: Drosophila S2R+ cells. Reagents: long dsRNA against Drosophila genes. Time to read-out: 5 days (water added on day 4, read one day later). Treatment: water added as vehicle, no metal, one day before read-out. Read-out: 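Luciferase ATP signal per well, normalised to plate mean, duplicate average converted to z-score across plates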. Scale: ATP z-score: higher = more total ATP than typical wells; ATP luminescence: higher = more total ATP. Active means: 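a hit is any knock-down whose absolute ATP z-score is greater than 1.5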. Calls: active = hit: ATP up or down; inactive = no clear ATP change.
In all, the deposit lists about 3,100 reagents; below is a random part of them. Of all reagents, 378 (12%) are marked active. 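Hits include both directions; z-score sign shows ATP rise or fall; raw luminescence values are not plate-normalised.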 The numbers tell different reagents against one gene apart. Names joined by + are all predicted targets of the reagent. The record does not give: the amount of reagent.

PGRP-LD + Pmi | ATP z-score, duplicate mean: -0.461; ATP luminescence, replicate 1 (RLU): 6.26e5; ATP luminescence, replicate 2 (RLU): 7.32e5; activity call: inactive
CG17930 #1 | ATP z-score, duplicate mean: 0.163; ATP luminescence, replicate 1 (RLU): 7.36e5; ATP luminescence, replicate 2 (RLU): 7.10e5; activity call: inactive
CG17930 #2 | ATP z-score, duplicate mean: -0.456; ATP luminescence, replicate 1 (RLU): 7.50e5; ATP luminescence, replicate 2 (RLU): 7.84e5; activity call: inactive
Tsp2A #1 | ATP z-score, duplicate mean: 0.735; ATP luminescence, replicate 1 (RLU): 7.76e5; ATP luminescence, replicate 2 (RLU): 7.52e5; activity call: inactive
Tsp2A #2 | ATP z-score, duplicate mean: -0.572; ATP luminescence, replicate 1 (RLU): 4.33e5; ATP luminescence, replicate 2 (RLU): 3.98e5; activity call: inactive
Flo1 #1 | ATP z-score, duplicate mean: 0.177; ATP luminescence, replicate 1 (RLU): 7.49e5; ATP luminescence, replicate 2 (RLU): 7.51e5; activity call: inactive
Flo1 #2 | ATP z-score, duplicate mean: -1.14; ATP luminescence, replicate 1 (RLU): 1.06e6; ATP luminescence, replicate 2 (RLU): 1.05e6; activity call: inactive
drl #1 | ATP z-score, duplicate mean: 0.877; ATP luminescence, replicate 1 (RLU): 4.49e5; ATP luminescence, replicate 2 (RLU): 6.38e5; activity call: inactive
drl #2 | ATP z-score, duplicate mean: 0.0597; ATP luminescence, replicate 1 (RLU): 1.01e6; ATP luminescence, replicate 2 (RLU): 6.66e5; activity call: inactive
drl #3 | ATP z-score, duplicate mean: -0.737; ATP luminescence, replicate 1 (RLU): 4.80e5; ATP luminescence, replicate 2 (RLU): 5.55e5; activity call: inactive
CG9825 #1 | ATP z-score, duplicate mean: 0.182; ATP luminescence, replicate 1 (RLU): 7.43e5; ATP luminescence, replicate 2 (RLU): 7.47e5; activity call: inactive
CG9825 #2 | ATP z-score, duplicate mean: -0.71; ATP luminescence, replicate 1 (RLU): 7.68e5; ATP luminescence, replicate 2 (RLU): 7.56e5; activity call: inactive
Ctr1A | ATP z-score, duplicate mean: -2.44; ATP luminescence, replicate 1 (RLU): 3.86e5; ATP luminescence, replicate 2 (RLU): 4.89e5; activity call: active
CG14777 | ATP z-score, duplicate mean: -1.93; ATP luminescence, replicate 1 (RLU): 5.76e5; ATP luminescence, replicate 2 (RLU): 6.22e5; activity call: active
CG3106 #1 | ATP z-score, duplicate mean: 0.697; ATP luminescence, replicate 1 (RLU): 7.92e5; ATP luminescence, replicate 2 (RLU): 7.64e5; activity call: inactive
CG3106 #2 | ATP z-score, duplicate mean: -0.583; ATP luminescence, replicate 1 (RLU): 6.65e5; ATP luminescence, replicate 2 (RLU): 8.31e5; activity call: inactive
nAChRbeta1 #1 | ATP z-score, duplicate mean: -0.0268; ATP luminescence, replicate 1 (RLU): 7.06e5; ATP luminescence, replicate 2 (RLU): 7.75e5; activity call: inactive
nAChRbeta1 #2 | ATP z-score, duplicate mean: -0.0738; ATP luminescence, replicate 1 (RLU): 6.99e5; ATP luminescence, replicate 2 (RLU): 7.48e5; activity call: inactive
anchor | ATP z-score, duplicate mean: 1.3; ATP luminescence, replicate 1 (RLU): 1.01e6; ATP luminescence, replicate 2 (RLU): 7.27e5; activity call: inactive
Tmtc4 #1 | ATP z-score, duplicate mean: -0.511; ATP luminescence, replicate 1 (RLU): 2.77e5; ATP luminescence, replicate 2 (RLU): 7.04e5; activity call: inactive
Tmtc4 #2 | ATP z-score, duplicate mean: -1.07; ATP luminescence, replicate 1 (RLU): 3.42e5; ATP luminescence, replicate 2 (RLU): 4.45e5; activity call: inactive
MRP #1 | ATP z-score, duplicate mean: 0.00164; ATP luminescence, replicate 1 (RLU): 4.53e5; ATP luminescence, replicate 2 (RLU): 5.07e5; activity call: inactive
MRP #2 | ATP z-score, duplicate mean: -1.02; ATP luminescence, replicate 1 (RLU): 3.92e5; ATP luminescence, replicate 2 (RLU): 3.79e5; activity call: inactive
ft #1 | ATP z-score, duplicate mean: -1.16; ATP luminescence, replicate 1 (RLU): 4.50e5; ATP luminescence, replicate 2 (RLU): 3.42e5; activity call: inactive
ft #2 | ATP z-score, duplicate mean: -0.908; ATP luminescence, replicate 1 (RLU): 4.53e5; ATP luminescence, replicate 2 (RLU): 5.53e5; activity call: inactive

Laid out differently: results already given
MRP #2
- ATP z-score, duplicate mean: -1.02
- ATP luminescence, replicate 1 (RLU): 3.92e5
- ATP luminescence, replicate 2 (RLU): 3.79e5
- activity call: inactive

ft #1
- ATP z-score, duplicate mean: -1.16
- ATP luminescence, replicate 1 (RLU): 4.50e5
- ATP luminescence, replicate 2 (RLU): 3.42e5
- activity call: inactive

ft #2
- ATP z-score, duplicate mean: -0.908
- ATP luminescence, replicate 1 (RLU): 4.53e5
- ATP luminescence, replicate 2 (RLU): 5.53e5
- activity call: inactive
